{
  "source": "patent US20250032569A1",
  "about": "“COMPOSITION, IN PARTICULAR COSMETIC FORMULATION, COMPRISING A VERBASCOSIDE EXTRACT” (MEDENA AG, priority 2021, published 2025)",
  "type_in_all_cases": "physicochemical",
  "key": {"[1]": {"assay": "In vitro spectrophotometric SPF calculated by the Sayre equation (Eq. 1)", "protocol": "Each sample (1 ml) was placed in a 1 cm quartz cell. The absorbance was measured between 250-600 nm at an interval of every 1 nm using a Varian UV/Vis spectrophotometer (Cary 50 Scan). The following parameters were measured and calculated for each sample assuming standard application to the skin—2 mg/cm^2: • the SPF values. • the critical wavelength λC • the UVA/UVB ratio 1. […]\nEach sample (1 ml) was placed in a 1 cm quartz cell. The absorbance was measured between 250-600 nm at an interval of every 1 nm using a Varian UV/Vis spectrophotometer (Cary 50 Scan). The following parameters were measured and calculated for each sample assuming standard application to the skin—2 mg/cm^2: • the SPF values. • the critical wavelength λC • the UVA/UVB ratio\nThe SPF values in vitro were calculated according to the method described by Sayre et al., (Sayre, R M; Agin, P P; LeVee, G J; Marlowe, E. A comparison of in vivo and in vitro testing of sunscreening formulas, Photochem. Photobiol. 1979, 29, 559-566). The calculation was done using Equation 1: […]\nwhere Ss(λ) is the spectral irradiance, Ser(λ) is the CIE erythema action spectrum and T(λ) is the transmission of the sunscreen. The values of Ss(λ) and Ser(λ) were taken from the literature (B. L. Diffey, J. Robson. A new substrate to measure sunscreen protection factors throughout the ultraviolet spectrum, J. Soc. Cosmet. Chem. 1989, 40, 127-133). […]\nSPF values were calculated using Eq. 1 for sun protective cosmetics applied at 2 mg/cm^2 (standard application).\nThe same methods and equations as in the case of plant extracts were applied.\nSolutions of sunscreens at concentrations 0.001% were prepared in duplicate and UV-visible absorption spectra were recorded over the range of 250-600 nm (FIG. 1). On the basis of these spectra, the transmission of the sunscreen (T) was found from monochromatic absorbance values at wavelength λ: T=10^−A(λ).\nThe SPF in vitro was calculated according to the method described by Sayre et al., (Sayre, R M; Agin, P P; LeVee, G J; Marlowe, E. A comparison of in vivo and in vitro testing of sunscreening formulas, Photochem. Photobiol. 1979, 29, 559-566) following equation 1: […]\nwhere Ss(λ) is the spectral irradiance, Ser(λ) the CIE erythema action spectrum and T(λ) the trans-mission of the sunscreen. Data for Ss(λ) and Ser(λ) are available in the literature (B. L. Diffey, J. Robson. A new substrate to measure sunscreen protection factors throughout the ultraviolet spectrum, J. Soc. Cosmet. Chem. 1989, 40, 127-133).\nThe SPF values were calculated using Eq 1 with the application conditions 2 mg/cm^2 (Standard application recommended by the European Agency).\nThe SPF value for lotions were calculated using Eq. 1 for three application conditions at 2 mg/cm^2 (standard application), 2.5 mg/cm^2 and 3 mg/cm^2. In the same Table 22, critical wavelength and the UVA/UVB ratios are shown."}, "[2]": {"assay": "SPF calculated by modified Sayre method", "source_text": "In the following Table 20, there are SPF values obtained in vitro spectrophotometrically, which have been calculated by a classical Sayre method (Sayre, R M; Agin, P P; LeVee, G J; Marlowe, E. A comparison of in vivo and in vitro testing of sunscreening formulas, Photochem. Photobiol. 1979, 29, 559-566) and modified Sayre method, which gives results similar to those obtained in the in vivo tests recommended by COLIPA.\n• (1) For water insoluble chemical filters, the modified Sayre method gives results close to those calculated by Simulator-Calculator (BASF) and the in vivo tests. The Simulator-Calculator uses the modified Sayre method assuming an exponentiation equal to 0.827 (X^0.827). • (2) For water soluble natural filters, the same modified Sayre method would give results close to those obtained by the in vivo tests (predicted by Simulator-Calculator). Examples of Cosmetic Compositions with Fully Natural Sun Protective Factors • 1. Sun protective lotion SPF 50+, high UV-A protection • 2. Sun protective cream SPF 50+, high UV-A protection • 3. Sun protective serum for pregnant and milking women SPF 50+, high UV-A protection • 4. Sun protective milk for babies SPF 50+, high UV-A protection • 5. Sun protective lotion SPF 20-30, high UV-A protection for people with highly sensitive skin E. Analysis of Sun Protective Parameters of Two Lotions and Cream Containing Lippia citriodora Extract with 40% of Verbascoside."}, "[3]": {"assay": "Critical wavelength (λC) from absorption spectra (Eq. 2)", "protocol": "The Critical Wavelength λC is the wavelength, where the area under the absorbance spectrum for the irradiated product from 290 nm to λC is equal to 90% of the integral value of the absorbance spectrum from 290 to 400 nm and was calculated using Eq. 2:\nwhere A (λ)=monochromatic absorbance values at wavelength λ. The critical wavelength was determined for all samples in order to assess a degree of UVA protection. In cases where the critical wavelength is lower than 370 nm, the protection from UVA is less evident.\nThe Critical Wavelength λC value for the test product was defined as that wavelength where the area under the absorbance spectrum of the sample from 290 nm to λC is 90% of the integral of the absorbance spectrum from 290 to 400 nm and is calculated using Eq. 2:\n[formula] • A(λ)=monochromatic absorbance values at wavelength λ"}, "[4]": {"assay": "UVA/UVB ratio from absorption spectra (Eq. 3) and Boots UVA Star Rating", "protocol": "Critical Wavelength (λC) and the UVA/UVB ratios were also calculated from the absorption spectra and were collected in Table 2. […] According to these International indications, aqueous solutions of Haberlea rhodopensis with different concentrations of myconoside can be attributed to the group of good protection (2 UVA Star Rating).\nIn order to further characterize solutions as skin photo-protectors from UVA, the UVA/UVB ratio was calculated using Eq. 3: […]\nIn order to characterize the ability of creams to protect skin against UVA the UVA/UVB ratio was calculated using Eq. 3: […]"}, "[5]": {"details": "chemical UV filter 0.5% in sun protective solution"}, "[6]": {"details": "chemical UV filter 1% in sun protective solution"}, "[7]": {"details": "chemical UV filter 2.5% in sun protective solution"}, "[8]": {"details": "chemical UV filter 5% in sun protective solution"}, "[9]": {"details": "chemical UV filter 10% in sun protective solution"}, "[10]": {"details": "chemical UV filter 20% in sun protective solution"}, "[11]": {"details": "chemical sunscreen, no concentration stated"}},
  "note": "At least one compound was matched to its structure with a doubt left.",
  "data": [
    {"smiles": "CCCCC(CC)COC(=O)C=Cc1ccc(OC)cc1", "note": "(centres unmarked) [octyl methoxycinnamate, Ethylhexyl methoxycinnamate]", "values": [
      {"measurement": "SPF values calculated by the Sayre equation", "setting": "[1]; UV filter 0.5% in sun protective cosmetic (Table 20)", "value": 4.3},
      {"measurement": "SPF values calculated by the Sayre equation", "setting": "[1]; UV filter 1.0% in sun protective cosmetic (Table 20)", "value": 10},
      {"measurement": "SPF values calculated by the Sayre equation", "setting": "[1]; UV filter 2.5% in sun protective cosmetic (Table 20)", "value": 15.5},
      {"measurement": "SPF values calculated by the Sayre equation", "setting": "[1]; UV filter 5% in sun protective cosmetic (Table 20)", "value": 17},
      {"measurement": "SPF values calculated by the Sayre equation", "setting": "[1]; UV filter 10% in sun protective cosmetic (Table 20)", "value": 19},
      {"measurement": "SPF values calculated by the Sayre equation", "setting": "[1]; UV filter 20% in sun protective cosmetic (Table 20)", "value": 20},
      {"measurement": "SPF values", "setting": "[1]; chemical UV filter 0.5% in sun protective solution (Tables 12-19)", "value": 5.7},
      {"measurement": "SPF values", "setting": "[1]; chemical UV filter 1% in sun protective solution (Tables 12-19)", "value": 12},
      {"measurement": "SPF values", "setting": "[1]; chemical UV filter 2.5% in sun protective solution (Tables 12-19)", "value": 17},
      {"measurement": "SPF values", "setting": "[1]; chemical UV filter 5% in sun protective solution (Tables 12-19)", "value": 20},
      {"measurement": "SPF values", "setting": "[1]; chemical UV filter 10% in sun protective solution (Tables 12-19)", "value": 23},
      {"measurement": "SPF values", "setting": "[1]; chemical UV filter 20% in sun protective solution (Table 12)", "value": 27},
      {"measurement": "SPF values calculated by Modified Sayre", "setting": "[2]; UV filter 0.5% in sun protective cosmetic", "value": 4.1},
      {"measurement": "SPF values calculated by Modified Sayre", "setting": "[2]; UV filter 1.0% in sun protective cosmetic", "value": 6.3},
      {"measurement": "SPF values calculated by Modified Sayre", "setting": "[2]; UV filter 2.5% in sun protective cosmetic", "value": 11},
      {"measurement": "SPF values calculated by Modified Sayre", "setting": "[2]; UV filter 5% in sun protective cosmetic", "value": 17},
      {"measurement": "SPF values calculated by Modified Sayre", "setting": "[2]; UV filter 10% in sun protective cosmetic", "value": 26},
      {"measurement": "SPF values calculated by Modified Sayre", "setting": "[2]; UV filter 20% in sun protective cosmetic", "value": 40},
      {"measurement": "Critical wavelength (λC)", "setting": "[3]; [5]", "value": 329, "unit": "nm"},
      {"measurement": "Critical wavelength (λC)", "setting": "[3]; [6]", "value": 329, "unit": "nm"},
      {"measurement": "Critical wavelength (λC)", "setting": "[3]; [7]", "value": 329, "unit": "nm"},
      {"measurement": "Critical wavelength (λC)", "setting": "[3]; [8]", "value": 329, "unit": "nm"},
      {"measurement": "Critical wavelength (λC)", "setting": "[3]; [9]", "value": 329, "unit": "nm"},
      {"measurement": "Critical wavelength (λC)", "setting": "[3]; [10]", "value": 329, "unit": "nm"},
      {"measurement": "critical wavelength", "setting": "[3]; [11]", "value": 329, "unit": "nm"},
      {"measurement": "UVA/UVB", "setting": "[4]; [5]", "value": 0.12},
      {"measurement": "UVA/UVB", "setting": "[4]; [6]", "value": 0.12},
      {"measurement": "UVA/UVB", "setting": "[4]; [7]", "value": 0.12},
      {"measurement": "UVA/UVB", "setting": "[4]; [8]", "value": 0.12},
      {"measurement": "UVA/UVB", "setting": "[4]; [9]", "value": 0.12},
      {"measurement": "UVA/UVB", "setting": "[4]; [10]", "value": 0.12},
      {"measurement": "ratio UVA/UVB", "setting": "[4]; [11]", "value": 0.12}
    ]}
  ]
}
